This experiment relates to P388 leukemia ip, CD2F1 mice, survival T/C. The experiment can be described thus: NCI In Vivo Anticancer Drug Screen. Data for tumor model P388 Leukemia (intraperitoneal) in CD2F1 (CDF1) mice. The following applies: T/C endpoint: median survival time, higher T/C = longer survival.
The mark [1] stands for this setting: dose: 200.0 mg/kg/injection, schedule: Q01DX005 (ip), vehicle: Klucel (hydroxypropylcellulose) (HPC).
Setting [2] is: dose: 25.0 mg/kg/injection, schedule: Q01DX009 (ip), vehicle: saline with Tween-80.
Where [3] appears, read: dose: 50.0 mg/kg/injection, schedule: Q01DX009 (ip), vehicle: saline with Tween-80.
The mark [4] stands for this setting: dose: 200.0 mg/kg/injection, schedule: Q01DX009 (ip), vehicle: saline with Tween-80.
The mark [5] stands for this setting: dose: 240.0 mg/kg/injection, schedule: Q01DX005 (ip), vehicle: Klucel (hydroxypropylcellulose) (HPC).
[6] abbreviates: dose: 100.0 mg/kg/injection, schedule: Q01DX009 (ip), vehicle: saline with Tween-80.
Where [7] appears, read: dose: 100.0 mg/kg/injection, schedule: Q01DX009 (ip), vehicle: Klucel (hydroxypropylcellulose) (HPC).
Where [8] appears, read: dose: 200.0 mg/kg/injection, schedule: Q01DX009 (ip), vehicle: Klucel (hydroxypropylcellulose) (HPC).

The list does not hold the whole screen: it gathers tests that were run many times, whatever their T/C, doses with no T/C, and many T/C values between a quarter and a half above the control. Further doses and runs are listed elsewhere. T/C: endpoint of the treated group in % of that of the vehicle group. Some entries give survivors of the animals treated and no T/C: the source holds a T/C of zero for them, seemingly a mark for toxic or unscored doses. Some doses without a T/C left all or most animals alive at the check, yet need not have been tolerated: the source hardly ever lists a survival T/C far under the control, and the zero likely stands for such cases as well. Counts of survivors are from the toxicity check (mostly the fifth day) where no day follows; animals may have died later. Schedules are NCI's codes, read here as Q, the interval in days (D) or hours (H), X, the number of doses. Some entries were tested several times; the values are given in rising order. Where survival is the endpoint, the PubChem record calls one and a half times the control and up active, and a quarter to a half above the control has no call in these data; cut-offs in other NCI protocols can differ.

For the compound `O=C1NC(=O)C2=C1CCC2Br` (centres undefined), the survivor count is reported as 3 of 6 (dose: 12.5 mg/kg/injection, schedule: Q01DX009 (ip), vehicle: distilled water + Tween-80); 0 of 6 (dose: 25.0 mg/kg/injection, schedule: Q01DX009 (ip), vehicle: distilled water + Tween-80); 0 of 6 (dose: 50.0 mg/kg/injection, schedule: Q01DX009 (ip), vehicle: distilled water + Tween-80); 0 of 6 (dose: 100.0 mg/kg/injection, schedule: Q01DX009 (ip), vehicle: distilled water + Tween-80).

On to `CC(C)(C)OC(=O)NCCCCC(NC(=O)OCC1c2ccccc2-c2ccccc21)C(=O)O` (centres undefined), for which the survivor count under setting [1] is reported as 0 of 6.

With `CCC1(O)CN2CCc3c([nH]c4ccccc34)C1C(/C=C(\C(=O)OC)c1cc3c(cc1OC)N(C)C1C(O)(C(=O)OC)C(OC(C)=O)C4(CC)C=CCN5CCC31C54)C2` (centres undefined), the T/C (dose: 1.0 mg/kg/injection, schedule: Q01DX009 (ip), vehicle: distilled water + alcohol) is 142 % of control.

With `CN=C1c2ccccc2C(=O)c2c1c(O)n(-c1ccccc1)c2O`, the survivor count under setting [1] was 5 of 6.

`C/C(=N\NC(=S)N1CCCCC1)c1ccccn1`: under setting [2], the survivor count is given as 4 of 6.

On to `O=c1[nH]c2cc(Cl)ccc2nc1/C=C(O)/C=C/c1ccccc1`, for which the survivor count (dose: 120.0 mg/kg/injection, schedule: Q01DX005 (ip), vehicle: saline with Tween-80) is 6 of 6.

For the compound `CCCCCCCCCCCCCCCCCC(=O)NCNC(=O)CCCCCCCCCCCCCCCCC`, for the setting “dose: 37.5 mg/kg/injection, schedule: Q04DX003 (ip), vehicle: saline”, the survivor count is 6 of 6.

For `CN1COC(OC2OCN(C)CC2(C)C)C(C)(C)C1` (centres undefined), the T/C by setting is: under setting [3], 139 % of control; under setting [4], 148 % of control.

In the case of `O=[N+]([O-])c1cc(I)c(O)c(/C=N/NS(=O)(=O)c2ccc(Cl)cc2)c1`, the survivor count (dose: 200.0 mg/kg/injection, schedule: Q01DX005 (ip), vehicle: saline with Tween-80) is 0 of 6.

In the case of `COC(=O)c1nc(N)nc(C(=O)OC)c1C(=O)c1ccccn1`, the survivor count under setting [5] is given as 2 of 6.

`CCN(CC)CCNc1ccc(COC(=O)OC)c2sc3ccccc3c(=O)c12`: the survivor count (dose: 25.0 mg/kg/injection, schedule: Q01DX005 (ip), vehicle: saline with Tween-80) is on record as 6 of 6 and the survivor count (dose: 50.0 mg/kg/injection, schedule: Q01DX005 (ip), vehicle: saline with Tween-80) is given as 6 of 6.

On to `CC(=O)NC(CSC1(c2ccccc2)c2ccccc2-c2ccccc21)C(=O)O` (centres undefined), for which the survivor count under setting [5] is given as 1 of 6.

Regarding `ClCc1cnc[nH]1`, the survivor count (dose: 200.0 mg/kg/injection, schedule: Q01DX009 (ip), vehicle: saline) was 3 of 6.

`Cc1c(-c2nc(N)nc(C3CC3)c2C)nc(N)nc1C1CC1`: where the note is “dose: 240.0 mg/kg/injection, schedule: Q01DX005 (ip), vehicle: saline”, the survivor count is on record as 3 of 6.

With `CN(C)NC(=O)[S-].CN(C)NC(=O)[S-].[Ni]`, the survivor count is, setting by setting: (dose: 100.0 mg/kg/injection, schedule: Q01DX001 (ip), vehicle: saline with Tween-80) 1 of 6; (dose: 200.0 mg/kg/injection, schedule: Q01DX001 (ip), vehicle: saline with Tween-80) 0 of 6.

For the compound `O=S1(=O)CC2=C(C1)C1C=CC2C2C=CC12` (centres undefined), the survivor count (dose: 200.0 mg/kg/injection, schedule: Q04DX003 (ip), vehicle: saline) is 5 of 6 and the survivor count (dose: 400.0 mg/kg/injection, schedule: Q04DX003 (ip), vehicle: saline) was 3 of 6.

Take `CCC(=O)Nc1ccc(C(=O)C(C)Br)cc1` (centres undefined): the survivor count under setting [3] is given as 4 of 6, the survivor count under setting [6] is recorded as 1 of 6 and the survivor count under setting [4] was 1 of 6.

Regarding `BrCCC[n+]1ccc2ccccc2c1-c1nccc2ccccc12`, the survivor count reads like this: (dose: 25.0 mg/kg/injection, schedule: Q01DX001 (ip), vehicle: saline) 0 of 6; (dose: 50.0 mg/kg/injection, schedule: Q01DX001 (ip), vehicle: saline) 0 of 6.

`O=C(CBr)c1cccc(OC(=O)c2ccccc2)c1`: the survivor count under setting [2] is given as 3 of 6.

For the compound `O=C(Nc1ccc(N=C=S)cc1Cl)c1cc(Cl)cc(Cl)c1O`, the T/C was 131 % of control (dose: 50.0 mg/kg/injection, schedule: Q01DX009 (ip), vehicle: Klucel (hydroxypropylcellulose) (HPC)) and 127 % of control under setting [7]. Under setting [8], the survivor count is 5 of 6 and 6 of 6.

Regarding `CCOC(=O)c1ccc(NC(=O)Nc2nccs2)cc1`, the T/C runs as follows: under setting [2], 145 % of control; under setting [3], 149 % of control; under setting [6], 143 % of control.

For `Cc1cc(Nc2ccc3c(c2)OCO3)c2cc(C3CCCCC3)ccc2n1`, under “dose: 240.0 mg/kg/injection, schedule: Q01DX005 (ip), vehicle: saline with Tween-80”, the survivor count is listed as 6 of 6.

Consider `CN(C)c1ccc(/C=C/c2ccnc3ccccc23)cc1N`, for which the survivor count by setting is: under setting [7], 3 of 6; under setting [8], 0 of 6; (dose: 400.0 mg/kg/injection, schedule: Q01DX009 (ip), vehicle: Klucel (hydroxypropylcellulose) (HPC)) 0 of 6.

As to `CCCOC(=O)C1C2CCC(O2)C1C(=O)O` (centres undefined), the survivor count (dose: 25.0 mg/kg/injection, schedule: Q01DX005 (ip), vehicle: saline) was 1 of 6; the survivor count (dose: 50.0 mg/kg/injection, schedule: Q01DX005 (ip), vehicle: saline) was 0 of 6; the survivor count (dose: 100.0 mg/kg/injection, schedule: Q01DX005 (ip), vehicle: saline) is listed as 0 of 6; the survivor count (dose: 200.0 mg/kg/injection, schedule: Q01DX005 (ip), vehicle: saline) is recorded as 0 of 6.

Regarding `COC(=O)CC(O)CCCCCCCCCCCCC(C)C` (centres undefined), the survivor count (dose: 70.0 mg/kg/injection, schedule: Q01DX005 (ip), vehicle: Klucel + Tween-80) was 6 of 6.

Turning to `O=P(O)(O)SP(=O)(O)O.[Co]`, under setting [8], the survivor count is recorded as 0 of 6.

Regarding `NCCNCCN1C(=O)c2cccc3cccc(c23)C1=O`, the survivor count (dose: 400.0 mg/kg/injection, schedule: Q01DX001 (ip), vehicle: saline) is given as 0 of 6.

Take `CCC[N+](CCC)=c1ccc2nc3c(C)cc(N(CC)CC)cc3sc-2c1`: the survivor count (dose: 25.0 mg/kg/injection, schedule: Q01DX009 (ip), vehicle: saline) is listed as 4 of 6.

`CC(=O)NS(=O)(=O)c1ccc(N)cc1`: the T/C (dose: 200.0 mg/kg/injection, schedule: Q01DX009 (ip), vehicle: saline sonified) was 127 % of control.

As to `CN(C)CCCNc1cccc2c1C(=O)c1c(NCCCN(C)C)cccc1C2=O`, the survivor count was 6 of 6 (dose: 50.0 mg/kg/injection, schedule: Q01DX009 (ip), vehicle: water); 6 of 6 (dose: 100.0 mg/kg/injection, schedule: Q01DX009 (ip), vehicle: water); 1 of 6 (dose: 200.0 mg/kg/injection, schedule: Q01DX009 (ip), vehicle: water).

Regarding `N#CCCC1CS1` (centres undefined), the survivor count runs as follows: (dose: 150.0 mg/kg/injection, schedule: Q01DX009 (ip), vehicle: saline with Tween-80) 4 of 6; (dose: 300.0 mg/kg/injection, schedule: Q01DX009 (ip), vehicle: saline with Tween-80) 0 of 6.

With `C=C1CC/C=C(/C)C(=O)C(OC(C)=O)C2C1CC2(C)C` (centres undefined), the survivor count (dose: 56.0 mg/kg/injection, schedule: Q01DX009 (ip), vehicle: saline + alcohol) is 2 of 6.
